According to patent US20140073639A1 (priority 2012, published 2014):

Experiments:
B. Anthracis = test: microbe, parasite or virus in culture; format: cell-based; details: Bacillus anthracis
S. MRSA = test: microbe, parasite or virus in culture; format: cell-based; details: Staphylococcus aureus

`O=S(=O)(c1ccc2[nH]c(SCc3cccc(Cl)c3)nc2c1)N1CCOCC1` [Cmpd 2] was tested, and the inhibition at 3 µM (B. Anthracis; read-out: B. Anthracis 3 μM (growth inhibition)) was 0%, the inhibition at 10 µM (B. Anthracis; read-out: B. Anthracis 10 μM (growth inhibition)) was 12% and the inhibition at 30 µM (B. Anthracis; read-out: B. Anthracis 30 μM (growth inhibition)) was 37.3%. The inhibition at 10 µM (S. MRSA; read-out: S. MRSA 10 μM (growth inhibition)) was -24.8% and the inhibition at 30 µM (S. MRSA; read-out: S. MRSA 30 μM (growth inhibition)) was 46.2%.
